Reference: the supplement of paper PMC5407854, “Inhibitor of ppGalNAc-T3-mediated O-glycosylation blocks cancer cell invasiveness and lowers FGF23 levels” (eLife, 2017)
Over roughly 1,700 compounds, “T2 sensor activation Q score (MG/GFP ratio z-score vs DMSO controls)” has its median near 0.3; the highest 2% begin near 1.9. The list shows a part of the results.

The compounds below were run on ppGalNAc-T2 sensor (assay: T2 sensor activation Q score (MG/GFP ratio z-score vs DMSO controls) (SD units); higher = more sensor activation (inhibition of ppGalNAc-T2 glycosylation)). Details: HEK293 sensor cells; 10 µM; 6 h.
Experimental: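 Cells were treated with compound at 10 uM for 6 h, then MG/GFP ratio was read by flow cytometry (10,000 cells per well, duplicate wells). Q = (R - R_neg)/SD_neg relative to DMSO vehicle controls; the signal rises when the glycosyltransferase is inhibited.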

Row | Compound | T2 sensor activation Q score
1 | O=C(O)/C=C/C(=O)N1Cc2cc3ccccc3nc2C1 | -0.3
2 | CCOC(=O)c1cc2c(OC)c(OC)ccc2c2[nH]cc(C#N)c(=O)c12 | 0.45
3 | Cn1c(=O)c2[nH]c(CNc3ccc(C(=O)O)cc3)nc2n(C)c1=O | 1.3
4 | O=C(O)c1ccc(O)c(O)c1 | 0.25
5 | COc1ccc(C(=O)Oc2ccc[nH]c2=O)cc1 | -0.05
6 | CCN(CC)CCNC(=O)C(Cl)=C1C(Cl)=C(Cl)C(Cl)=C1Cl | 1
7 | CCCCCCCCCCCCC(NC(C)=O)(C(=O)OCC)C(=O)OCC | -0.1
8 | COc1c(O)ccc2c1CN1CCc3cc4c(cc3C1C2)OCO4 (centres undefined) | -1.3
9 | Nc1ccc(/C=C/c2ccc3ncccc3c2)cc1 | 0.4
10 | CC(=O)C1C=CC(C)(C(=O)O)C2C=C(C)C(=O)C(C)(O)C12 (centres undefined) | 0.2
11 | Cc1cnc(SCc2ccc(Cl)cc2Cl)[nH]c1=O | 0.7
12 | Nc1cc([N+](=O)[O-])ccc1Nc1ccc(O)cc1 | 0.75
13 | COc1ccc2nc3cc(Cl)ccc3c(Nc3cc(C(C)C)c(O)cc3C)c2c1 | 0.55
14 | Cc1[nH]ccc2c1[nH]c1cc(=O)ccc12 | -1.9
15 | CC1(C)C2CCC(CN=C(N)CSS(=O)(=O)O)C1C2 (centres undefined) | 1.3
16 | Cn1c(CO)cnc1-c1ccccc1 | 1.15
17 | O=C(O)c1nc2nc(Cl)c(Cl)nc2[nH]1 | -0.7
18 | COc1ccc2c3c([nH]c2c1)[C@H]1C[C@H]2[C@H](C[C@@H](O)[C@H](OC)[C@H]2C(=O)O)CN1CC3 | -0.05
19 | CN(C)c1ccc(C(c2ccc(N(C)C)cc2)c2ccc([N+](=O)[O-])cc2)cc1 | 0.55
20 | CC1=NCC(C)c2ccccc21 (centres undefined) | 3.25
21 | O=c1cc(-c2ccccc2)nc2cc(-c3ccco3)[nH]n12 | 0.8
22 | CC(=O)Nc1ccc(OCCOc2ccc([N+](=O)[O-])cc2)cc1 | 1.15
23 | CCN1CCC(Nc2ccnc3cc(Cl)ccc23)CC1 | -1.75
24 | COc1cccc2nc3cc(C)c(C)cc3nc12 | 1.9
25 | Nc1ccc(SCc2nc3cccc4c3n2CCC4)cc1 | 0.35

Single values from the list.
Entry of `Cn1c(=O)c2[nH]c(CNc3ccc(C(=O)O)cc3)nc2n(C)c1=O` under T2 sensor activation Q score: 1.3
Entry of `Nc1ccc(SCc2nc3cccc4c3n2CCC4)cc1` under T2 sensor activation Q score: 0.35
Entry of `COc1cccc2nc3cc(C)c(C)cc3nc12` under T2 sensor activation Q score: 1.9
Entry of `Cc1cnc(SCc2ccc(Cl)cc2Cl)[nH]c1=O` under T2 sensor activation Q score: 0.7

(further entries)

Row | Compound | T2 sensor activation Q score
26 | COc1cc(C(=O)c2cocc2C(=O)c2ccc3c(c2)OCO3)cc(OC)c1OC | 1.05
27 | COc1cc2oc3cc(C)oc(=O)c3c2cc1OC | 0.55
28 | CCOC(=O)C1CC(C)=C(C)CC1C(=O)O (centres undefined) | 0.65
29 | CC(=O)Nc1cccc(-n2c(=O)n(C3CC3)c(=O)c3c(Nc4ccc(I)cc4F)n(C)c(=O)c(C)c32)c1 | 0.4
30 | O=C(Nc1ccsn1)c1ccc(Cl)cc1Cl | 1.25
31 | CCC(CO)Nc1nc2ccc(Cl)cc2c2ccccc12 (centres undefined) | 0.65
32 | CCCCC(=O)N(CCC)CCC | 0.6
33 | NC(N)=NS(=O)(=O)c1ccc(N=C2C(=O)Nc3ccccc32)cc1 | 1.9
34 | Oc1cccc2cnccc12 | 0.9
35 | Cc1cc(=O)n2c3c(c4c(cc13)c(CN(C)C)cc(=O)n4C)OC2 | 1.3
36 | CCOC(=O)/C=C/c1ccc(C(=O)OCC)[nH]1 | -1.8
37 | COc1cc(C(O)c2nc3ccccc3s2)cc(OC)c1OC (centres undefined) | -0.5
38 | O=C1CCCC1C(=O)Nc1ccc2ccccc2c1 (centres undefined) | -0.15
39 | Cc1c(-c2ccccc2)n(O)[n+]([O-])c1-c1ccccc1 | 0.85
40 | CSc1cccc(NC(=O)Nc2ccccc2C(N)=O)c1 | 1.25
41 | Clc1nc2nc3n(c2nc1Cl)CCC3 | -1.55
42 | CN(C)CC1C2CCC(C2)C1O (centres undefined) | -1.55
43 | N#C/C(=C\c1cccnc1)c1ccc(Br)cc1 | 0.15
44 | COC(=O)C1(C)Cc2cc(OC(C)=O)c(OC(C)=O)cc2N1 (centres undefined) | -1.5
45 | CN1CCN(C(=O)/C=C/c2ccc([N+](=O)[O-])o2)CC1 | 1.05
46 | CC(=O)Nc1ccc(OC(=O)Oc2ccc(NC(C)=O)cc2)cc1 | 1.2
47 | N=C1CCC(=N)c2c1c(O)c1ccccc1c2O | -1
48 | Cc1ccc(Nc2ccc(N)cc2S(=O)(=O)O)cc1 | -0.25
49 | COc1cc(C2NC(=O)C(C#N)=C(Nc3cccc(C)c3)S2)ccc1O (centres undefined) | 0.5
50 | CCOC(=O)Nc1ccc2nc(Sc3ccc(Cl)cc3)sc2c1 | 0.35

Arranged by molar mass (smallest number first): part of the list above.
Row | Compound | T2 sensor activation Q score
9 | Nc1ccc(/C=C/c2ccc3ncccc3c2)cc1 | 0.4
10 | CC(=O)C1C=CC(C)(C(=O)O)C2C=C(C)C(=O)C(C)(O)C12 (centres undefined) | 0.2
13 | COc1ccc2nc3cc(Cl)ccc3c(Nc3cc(C(C)C)c(O)cc3C)c2c1 | 0.55

Continuation.

Row | Compound | T2 sensor activation Q score
51 | COc1ccc2c3c1OC1CC(O)C=CC31CCN(C)C2 (centres undefined) | -0.15
52 | Cc1cc(NC(=O)NC(=O)c2ccccc2NC(=O)C(C)N)ccc1Oc1ncc(Br)cn1 (centres undefined) | 1.7
53 | CCCCn1cnc2c(=S)nc(N)[nH]c21 | 1
54 | O=c1[nH]cc(Cl)cc1Cl | 0.5
55 | O=C(Nc1cccc(-c2ccccc2)c1)N1CCN(C(=O)Nc2cccc(-c3ccccc3)c2)CC1 | -0.6
56 | CC(O)(c1ccccc1)C(c1ccccc1)C1CCCCN1 (centres undefined) | 1.5
57 | CC#CC#Cc1cccc(=O)o1 | -1.15
58 | C=C(C)CN1C(=O)C(C)S/C1=N/N=C1/SCC(=O)N1C (centres undefined) | -0.55
59 | CC1(C)N=C(N)NC(=NCCCOc2ccc([N+](=O)[O-])cc2)N1 | -0.3
60 | Clc1ccc(Oc2nc3c(Cl)cccc3s2)cc1Cl | 0.85
61 | CCc1ccc(CCN2C(=O)c3ccccc3C2=O)nc1 | 0.65
62 | COC(=O)Nc1csc2c1NC(=O)CCCC2 | 0
63 | Oc1ccc2ccccc2c1N=Nc1nccs1 | 0.9
64 | CCOC(=O)CSc1nc2nc(Cl)c(Cl)nc2[nH]1 | 0.95
65 | CC(=O)c1cc(O)c2ccccc2c1O | 1.7
66 | CC(C)C(=O)Nc1cccnc1 | -0.15
67 | CC(=O)Nc1ccc(S(=O)(=O)N=S(C)C)cc1 | 0.75
68 | NC(=O)c1nnsc1-c1ccc(-c2snnc2C(N)=O)cc1 | 1.7
69 | NS(=O)(=O)c1ccc(N=Nc2ccc(=O)[nH]c2O)cc1 | -1.25
70 | CC(=O)OCCN1c2ccccc2Sc2cnccc21 | -0.4
71 | COc1cccc(/C=C2\CCc3ccccc3C2=O)c1 | -2.35
72 | O=C(Nc1ccc(Br)c2ccccc12)c1ccc2ccccc2c1O | 1.2
73 | COc1cc(-c2ccc(NC(=O)NC3CC3)c(OC)c2)ccc1NC(=O)NC1CC1 | 0.3
74 | O=C1OCC/C1=C\OCCCO/C=C1\CCOC1=O | -0.4
75 | Cc1ccc(NC(=O)Nc2nc3ccccc3s2)cc1NC(=O)Nc1nc2ccccc2s1 | -1.2

Row | Compound | T2 sensor activation Q score
76 | Cc1cc(C)n2c(C)nnc2c1 | 1.55
77 | Nc1n[nH]c(CO)n1 | 1.95
78 | CCOC(=O)/C(C#N)=C/c1c[nH]c2ccccc12 | 0.65
79 | Nc1ccc(C(=O)C(=O)c2ccc(N)cc2)cc1 | -1.05
80 | COc1c(/C=N/NC(N)=O)c(OC)c(OC)c2c1CCO2 | 1.7
81 | CC(=O)NC1=C/C(=C\[N+](=O)[O-])C=C1O | -0.65
82 | CC1=C(C(N)=O)S(=O)(=O)c2ccccc21 | 1.85
83 | CC(C)(C)n1nc(C2CC2)cc1NC(=O)Nc1ccccc1 | -0.05
84 | Nc1ccc(-c2nc3nc(N)nc(N)c3nc2-c2ccc(N)cc2)cc1 | 4.95
85 | CC(C)(NC(=O)c1cc(Cl)c2ccccc2c1O)C(=O)O | 1.25
86 | CC(C)C[C@H](NC(=O)[C@H](Cc1ccccc1)NC(=O)c1cnccn1)B(O)O | -1.25
87 | CC(=O)NS(=O)(=O)c1ccc2sc(C)nc2c1 | 1.4
88 | COc1ccc(N=Cc2c(O)ccc3c2oc2cc(Cl)c(O)c(Cl)c23)cc1 | 1.45
89 | CS(=O)(=O)c1ccc(C(=O)Nc2ccc(Cl)c(-c3ccccn3)c2)c(Cl)c1 | -0.45
90 | CC1(C)N=C(N)N=C(N)N1c1cccc(CN)c1 | -0.85
91 | O=C(O)c1cc2ccccc2cc1Nc1ccccc1 | 1.35
92 | CCCCCC(=O)N1CCCC1 | -1.2
93 | Brc1ccc(-c2csc(Nc3nc(-c4ccc(Br)cc4)cs3)n2)cc1 | 0.05
94 | N=c1ccn2c(n1)O[C@H]1[C@H](O)[C@@H](CO)O[C@H]12 | -0.8
95 | O=c1[nH]cc(F)c(=O)[nH]1 | -1.15
96 | Oc1ccccc1Nc1ccccn1 | -0.85
97 | C=CCNC(=S)Nc1c(N)n(C)c(=O)n(C)c1=O | -0.8
98 | O=C(Nc1ccc2ccccc2c1)c1cccc(F)c1 | 0.2
99 | C[C@H](CCC(=O)O)[C@H]1CC[C@@]2(C)[C@@H]3C(=O)C[C@H]4C(C)(C)[C@@H](O)CC[C@]4(C)[C@H]3C(=O)C[C@]12C | 0.05
100 | COc1cccc(-c2nnc(N)o2)c1 | -1.45

Row | Compound | T2 sensor activation Q score
101 | O=C(Nc1ccc(O)c(C(=O)O)c1)Oc1ccccc1 | 1.45
102 | CCNC(=O)Oc1ccc[nH]c1=O | 0.7
103 | COc1ccc2c3c([nH]c2c1)[C@H]1C[C@H]2[C@H](C[C@@H](O)[C@H](OC)[C@H]2CO)CN1CC3 | 0.15
104 | CCCCC(=O)OCC(=O)[C@]1(O)Cc2c(O)c3c(c(O)c2[C@@H](O[C@H]2C[C@H](NC(=O)C(F)(F)F)[C@H](O)[C@H](C)O2)C1)C(=O)c1c(OC)cccc1C3=O | -5.6
105 | Cc1nc2ccccc2c(N)c1-c1cc(C)c2c(C)nc3ccccc3c2n1 | 1.55
106 | O=C1OC(Cc2ccccc2)C(c2ccccc2)C1=O (centres undefined) | 0.95
107 | OCc1ncccc1O | 1.6
108 | CCCOc1nc2c(c(=O)n(C)c(=O)n2C)n1C | 1.5
109 | [O-]/[N+](=C\c1ccccc1)CC1(O)CCCCC1 | -0.25
110 | CCOC(CNCc1cc(C)c2[nH]c3ccccc3c2c1C)OCC | -0.5
111 | O=S(=O)(c1ccc2c(c1)CCCN2)N1CCC[C@H]2CCCC[C@@H]21 | -1.9
112 | CCOC(=O)c1c(C)c(C(=O)OCC)n(C)c1C | 1.7
113 | Cc1ccc(C(N)=Nc2ccccc2)cc1 | 1.7
114 | C#CC1(O)CCC2C3CCC4=Cc5oncc5CC4(C)C3CCC21C (centres undefined) | 0.4
115 | Nc1nnc(-c2cccnc2)s1 | 0.6
116 | CC1(C)OC2C(CO)OC(n3cnc4c(=S)nc[nH]c43)C2O1 (centres undefined) | 0.4
117 | Cc1ccc(NC(=O)NNC(=O)CSC2CCc3ccccc32)c(C)c1 (centres undefined) | -1.2
118 | Cc1ccc(NC(=O)Nc2cccnc2)cc1NC(=O)Nc1cccnc1 | 1.05
119 | C[C@]12CC[C@H](O)CC1=CC[C@@H]1[C@@H]2CC[C@]2(C)c3[nH]ncc3C[C@@H]12 | 0.2
120 | O=C1c2ccccc2C(=O)c2c1cccc2-n1nnc2ccccc21 | 1
121 | O=C1c2ccccc2C(=O)C1c1ccccn1 | -0.05
122 | CC(=C/c1ccccc1)/C=C1/NC(=S)NC1=O | -0.2
123 | C#CCOCC1CN(c2ccccc2)C(=O)O1 (centres undefined) | 1.35
124 | CO[C@H]1C[C@@H]2CC[C@@H](C)[C@@](O)(O2)C(=O)C(=O)N2CCCC[C@H]2C(=O)O[C@H]([C@H](C)C[C@@H]2CC[C@@H](O)[C@H](OC)C2)CC(=O)[C@H](C)/C=C(\C)[C@@H](O)[C@@H](OC)C(=O)[C@H](C)C[C@H](C)/C=C/C=C/C=C/1C | -1.05
